This assay has as its target T1, Spin-GFP (Spinster) (Drosophila) (UniProt Q9GQQ0).
T1 sequence: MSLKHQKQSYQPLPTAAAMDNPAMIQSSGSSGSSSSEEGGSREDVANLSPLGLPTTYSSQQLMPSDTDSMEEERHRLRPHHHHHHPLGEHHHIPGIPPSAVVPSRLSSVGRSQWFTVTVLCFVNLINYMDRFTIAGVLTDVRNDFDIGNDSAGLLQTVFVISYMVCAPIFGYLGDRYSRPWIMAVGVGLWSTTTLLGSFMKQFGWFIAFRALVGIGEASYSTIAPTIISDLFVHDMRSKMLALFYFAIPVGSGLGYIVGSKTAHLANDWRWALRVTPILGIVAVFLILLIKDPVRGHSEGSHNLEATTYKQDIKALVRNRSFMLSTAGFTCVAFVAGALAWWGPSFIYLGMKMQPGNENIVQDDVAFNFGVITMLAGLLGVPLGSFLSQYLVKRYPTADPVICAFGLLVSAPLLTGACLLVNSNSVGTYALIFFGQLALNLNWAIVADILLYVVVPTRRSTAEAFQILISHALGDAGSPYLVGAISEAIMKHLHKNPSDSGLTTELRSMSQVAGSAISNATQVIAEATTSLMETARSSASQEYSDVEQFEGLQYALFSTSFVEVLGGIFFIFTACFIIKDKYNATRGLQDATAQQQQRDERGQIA
Nature of the assay: affinity purification with mass spectrometry.

The chains behind the UniProt entries cited, without tags or fusion partners. Residues count along the entry.
UniProt O18640: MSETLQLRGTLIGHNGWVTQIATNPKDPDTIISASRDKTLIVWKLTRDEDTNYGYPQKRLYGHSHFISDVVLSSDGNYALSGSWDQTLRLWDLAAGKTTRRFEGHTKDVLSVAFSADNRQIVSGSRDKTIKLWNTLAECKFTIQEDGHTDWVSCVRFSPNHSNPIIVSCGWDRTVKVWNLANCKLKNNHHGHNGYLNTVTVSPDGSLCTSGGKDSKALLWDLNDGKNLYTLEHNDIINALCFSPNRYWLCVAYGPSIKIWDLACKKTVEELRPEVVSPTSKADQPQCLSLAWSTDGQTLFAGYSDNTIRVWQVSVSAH
UniProt Q9V496, residues 26-3351: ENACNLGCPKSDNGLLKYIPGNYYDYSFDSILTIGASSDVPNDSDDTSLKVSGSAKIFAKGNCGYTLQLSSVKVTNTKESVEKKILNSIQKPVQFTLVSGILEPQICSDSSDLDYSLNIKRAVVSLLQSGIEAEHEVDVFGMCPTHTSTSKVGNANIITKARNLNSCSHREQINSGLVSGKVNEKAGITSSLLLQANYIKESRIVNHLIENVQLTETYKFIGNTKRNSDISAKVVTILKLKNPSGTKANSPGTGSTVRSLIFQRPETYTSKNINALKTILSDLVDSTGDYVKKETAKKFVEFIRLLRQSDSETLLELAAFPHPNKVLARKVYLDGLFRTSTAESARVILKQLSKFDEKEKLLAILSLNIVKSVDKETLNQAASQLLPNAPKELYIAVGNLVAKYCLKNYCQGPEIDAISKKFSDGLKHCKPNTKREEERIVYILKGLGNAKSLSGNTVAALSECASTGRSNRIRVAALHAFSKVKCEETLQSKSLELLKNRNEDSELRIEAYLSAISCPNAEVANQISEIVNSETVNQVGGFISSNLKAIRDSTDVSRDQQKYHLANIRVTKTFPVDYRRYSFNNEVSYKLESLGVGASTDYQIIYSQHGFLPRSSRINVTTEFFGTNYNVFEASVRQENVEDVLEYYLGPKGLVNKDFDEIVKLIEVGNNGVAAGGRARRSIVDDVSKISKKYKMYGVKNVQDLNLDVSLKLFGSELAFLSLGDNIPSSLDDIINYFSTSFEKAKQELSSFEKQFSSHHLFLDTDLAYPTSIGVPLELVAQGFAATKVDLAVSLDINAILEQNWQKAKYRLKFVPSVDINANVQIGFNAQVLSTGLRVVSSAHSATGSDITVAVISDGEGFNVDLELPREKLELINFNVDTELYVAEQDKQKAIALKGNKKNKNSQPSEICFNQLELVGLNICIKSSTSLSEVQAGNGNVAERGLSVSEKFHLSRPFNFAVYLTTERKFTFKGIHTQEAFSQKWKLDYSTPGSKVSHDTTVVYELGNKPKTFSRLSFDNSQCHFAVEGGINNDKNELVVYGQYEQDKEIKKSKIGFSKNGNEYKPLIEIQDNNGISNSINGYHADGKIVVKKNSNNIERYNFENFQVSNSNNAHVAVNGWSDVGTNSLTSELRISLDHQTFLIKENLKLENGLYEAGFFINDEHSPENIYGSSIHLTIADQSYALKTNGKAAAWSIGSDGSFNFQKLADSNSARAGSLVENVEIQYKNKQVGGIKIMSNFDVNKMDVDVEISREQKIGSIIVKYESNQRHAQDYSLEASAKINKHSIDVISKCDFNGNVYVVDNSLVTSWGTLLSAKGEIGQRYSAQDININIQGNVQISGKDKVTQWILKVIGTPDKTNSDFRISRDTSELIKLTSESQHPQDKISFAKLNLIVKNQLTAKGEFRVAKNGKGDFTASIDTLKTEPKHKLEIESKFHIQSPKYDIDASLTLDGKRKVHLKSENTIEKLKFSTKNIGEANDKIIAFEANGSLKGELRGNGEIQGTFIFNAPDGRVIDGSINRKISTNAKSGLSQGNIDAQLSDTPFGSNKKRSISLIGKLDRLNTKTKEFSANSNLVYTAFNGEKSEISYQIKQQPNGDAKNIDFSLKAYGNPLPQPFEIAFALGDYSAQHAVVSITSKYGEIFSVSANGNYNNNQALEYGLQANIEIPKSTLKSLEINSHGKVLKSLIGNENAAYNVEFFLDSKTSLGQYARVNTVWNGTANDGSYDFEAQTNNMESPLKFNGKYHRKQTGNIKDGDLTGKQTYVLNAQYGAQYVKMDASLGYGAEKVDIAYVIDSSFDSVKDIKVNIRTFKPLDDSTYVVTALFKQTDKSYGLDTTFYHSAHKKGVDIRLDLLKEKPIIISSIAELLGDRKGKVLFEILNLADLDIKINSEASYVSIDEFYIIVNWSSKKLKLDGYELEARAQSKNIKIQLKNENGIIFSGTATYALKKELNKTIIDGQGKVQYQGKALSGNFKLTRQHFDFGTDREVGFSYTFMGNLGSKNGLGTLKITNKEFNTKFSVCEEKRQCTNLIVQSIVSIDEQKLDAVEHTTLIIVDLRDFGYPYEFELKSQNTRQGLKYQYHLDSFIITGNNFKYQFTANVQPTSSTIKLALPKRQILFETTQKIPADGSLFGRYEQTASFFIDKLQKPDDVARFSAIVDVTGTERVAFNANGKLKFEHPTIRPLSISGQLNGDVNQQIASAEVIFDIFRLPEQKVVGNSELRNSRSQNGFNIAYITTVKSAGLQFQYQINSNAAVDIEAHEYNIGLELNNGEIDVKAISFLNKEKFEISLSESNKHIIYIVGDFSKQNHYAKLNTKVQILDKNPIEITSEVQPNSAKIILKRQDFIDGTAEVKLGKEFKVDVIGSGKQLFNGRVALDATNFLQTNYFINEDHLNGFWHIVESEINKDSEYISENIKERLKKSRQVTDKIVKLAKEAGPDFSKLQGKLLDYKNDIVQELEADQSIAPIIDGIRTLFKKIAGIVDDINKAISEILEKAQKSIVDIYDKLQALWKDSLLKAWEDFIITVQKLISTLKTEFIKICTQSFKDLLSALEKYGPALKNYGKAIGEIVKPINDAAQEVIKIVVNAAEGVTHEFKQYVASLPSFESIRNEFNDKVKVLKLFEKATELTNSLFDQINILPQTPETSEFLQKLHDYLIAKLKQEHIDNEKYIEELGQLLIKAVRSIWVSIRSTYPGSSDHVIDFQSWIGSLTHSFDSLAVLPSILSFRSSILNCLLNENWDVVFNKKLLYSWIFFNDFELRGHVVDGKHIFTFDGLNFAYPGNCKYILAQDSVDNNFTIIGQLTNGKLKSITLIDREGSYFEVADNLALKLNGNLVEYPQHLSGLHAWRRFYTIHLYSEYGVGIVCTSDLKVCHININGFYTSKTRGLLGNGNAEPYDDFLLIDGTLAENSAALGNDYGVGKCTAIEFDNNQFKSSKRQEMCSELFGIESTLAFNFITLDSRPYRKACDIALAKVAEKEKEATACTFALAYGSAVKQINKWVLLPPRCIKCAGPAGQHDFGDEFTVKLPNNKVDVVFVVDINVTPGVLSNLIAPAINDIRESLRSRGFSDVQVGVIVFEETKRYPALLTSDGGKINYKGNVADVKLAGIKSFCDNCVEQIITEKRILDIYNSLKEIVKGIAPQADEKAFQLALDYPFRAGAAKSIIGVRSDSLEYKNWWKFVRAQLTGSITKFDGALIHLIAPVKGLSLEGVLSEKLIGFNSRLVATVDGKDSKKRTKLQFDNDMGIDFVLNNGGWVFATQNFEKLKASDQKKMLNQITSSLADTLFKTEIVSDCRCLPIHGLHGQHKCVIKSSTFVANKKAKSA

No constants are given. Whether binding was seen depends on the method and setting. Binding seen in cells or lysates may run through a third protein. Here binding means that the protein was enriched with, or labelled near, the bait; the list need not be complete. Where a sequence is shown, tags or fusion partners need not be part of it.

As for “Guanine nucleotide-binding protein subunit beta-like protein/Rack1 (from UniProt O18640 1-318)”, the binding entry is “binds”. Next, “Apolipophorin (from UniProt Q9V496 26-3351)”: “binds”.

(Values after publication doi:10.1101/075556.)
